Laboratory results published in PMC5982836.
Results are given in words; binding and its absence hold for the method and conditions named. Binding seen in cells or lysates may run through a third protein. Binding calls can cover weak binding; strength is not graded here. Tags and fused reporters may be left off the sequences shown.

T1: Myc-Mre11 (Drosophila Mre11) (D. melanogaster) (UniProt Q9XYZ4)
T1 sequence: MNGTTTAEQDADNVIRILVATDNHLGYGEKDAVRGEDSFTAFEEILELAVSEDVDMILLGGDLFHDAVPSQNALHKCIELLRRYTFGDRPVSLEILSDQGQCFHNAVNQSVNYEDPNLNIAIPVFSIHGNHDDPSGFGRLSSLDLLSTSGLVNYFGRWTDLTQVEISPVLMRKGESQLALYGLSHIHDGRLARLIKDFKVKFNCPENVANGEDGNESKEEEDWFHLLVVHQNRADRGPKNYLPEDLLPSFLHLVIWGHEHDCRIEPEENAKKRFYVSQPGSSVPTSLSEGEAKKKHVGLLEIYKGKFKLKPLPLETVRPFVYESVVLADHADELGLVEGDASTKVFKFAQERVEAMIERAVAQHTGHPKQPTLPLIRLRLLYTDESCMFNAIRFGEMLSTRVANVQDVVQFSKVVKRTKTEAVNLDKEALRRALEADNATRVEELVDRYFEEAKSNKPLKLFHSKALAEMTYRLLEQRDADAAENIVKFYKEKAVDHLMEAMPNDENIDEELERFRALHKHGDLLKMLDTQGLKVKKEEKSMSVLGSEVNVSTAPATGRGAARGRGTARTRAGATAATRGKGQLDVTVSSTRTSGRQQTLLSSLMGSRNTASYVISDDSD

B1: Myc-Mre11 (Drosophila Mre11) (protein, UniProt Q9XYZ4 1-620)
chain: T1 sequence

What was measured:
[1] = biological target: T1, Myc-Mre11 (Drosophila Mre11) (D. melanogaster); experiment: co-IP; DART1-V5 and Myc-Mre11 or Myc-Mre11GARΔ co-transfected into S2 cells for 24 h at 25°; lysis in 20 mM Tris-HCl pH 7.5, 150 mM NaCl, 1% Triton X-100; IP with V5 or Myc antibody, Protein-G beads at 4°; washed 4 times with 50 mM HEPES pH 7.3, 250 mM NaCl, 0.1% NP40
[2] = biological target: DART1-V5 (Drosophila arginine methyltransferase 1) (D. melanogaster); experiment: as above

Molecule | binding [1] | binding [2]
DART1-V5 (Drosophila arginine methyltransferase 1) (D. melanogaster) (enzyme) | binds | –
B1 | – | binds
